Binding data for 1 molecule are collected here from PMC3662314.

Chains of the proteins cited; added tags and fusions are not shown.
UniProt P78527: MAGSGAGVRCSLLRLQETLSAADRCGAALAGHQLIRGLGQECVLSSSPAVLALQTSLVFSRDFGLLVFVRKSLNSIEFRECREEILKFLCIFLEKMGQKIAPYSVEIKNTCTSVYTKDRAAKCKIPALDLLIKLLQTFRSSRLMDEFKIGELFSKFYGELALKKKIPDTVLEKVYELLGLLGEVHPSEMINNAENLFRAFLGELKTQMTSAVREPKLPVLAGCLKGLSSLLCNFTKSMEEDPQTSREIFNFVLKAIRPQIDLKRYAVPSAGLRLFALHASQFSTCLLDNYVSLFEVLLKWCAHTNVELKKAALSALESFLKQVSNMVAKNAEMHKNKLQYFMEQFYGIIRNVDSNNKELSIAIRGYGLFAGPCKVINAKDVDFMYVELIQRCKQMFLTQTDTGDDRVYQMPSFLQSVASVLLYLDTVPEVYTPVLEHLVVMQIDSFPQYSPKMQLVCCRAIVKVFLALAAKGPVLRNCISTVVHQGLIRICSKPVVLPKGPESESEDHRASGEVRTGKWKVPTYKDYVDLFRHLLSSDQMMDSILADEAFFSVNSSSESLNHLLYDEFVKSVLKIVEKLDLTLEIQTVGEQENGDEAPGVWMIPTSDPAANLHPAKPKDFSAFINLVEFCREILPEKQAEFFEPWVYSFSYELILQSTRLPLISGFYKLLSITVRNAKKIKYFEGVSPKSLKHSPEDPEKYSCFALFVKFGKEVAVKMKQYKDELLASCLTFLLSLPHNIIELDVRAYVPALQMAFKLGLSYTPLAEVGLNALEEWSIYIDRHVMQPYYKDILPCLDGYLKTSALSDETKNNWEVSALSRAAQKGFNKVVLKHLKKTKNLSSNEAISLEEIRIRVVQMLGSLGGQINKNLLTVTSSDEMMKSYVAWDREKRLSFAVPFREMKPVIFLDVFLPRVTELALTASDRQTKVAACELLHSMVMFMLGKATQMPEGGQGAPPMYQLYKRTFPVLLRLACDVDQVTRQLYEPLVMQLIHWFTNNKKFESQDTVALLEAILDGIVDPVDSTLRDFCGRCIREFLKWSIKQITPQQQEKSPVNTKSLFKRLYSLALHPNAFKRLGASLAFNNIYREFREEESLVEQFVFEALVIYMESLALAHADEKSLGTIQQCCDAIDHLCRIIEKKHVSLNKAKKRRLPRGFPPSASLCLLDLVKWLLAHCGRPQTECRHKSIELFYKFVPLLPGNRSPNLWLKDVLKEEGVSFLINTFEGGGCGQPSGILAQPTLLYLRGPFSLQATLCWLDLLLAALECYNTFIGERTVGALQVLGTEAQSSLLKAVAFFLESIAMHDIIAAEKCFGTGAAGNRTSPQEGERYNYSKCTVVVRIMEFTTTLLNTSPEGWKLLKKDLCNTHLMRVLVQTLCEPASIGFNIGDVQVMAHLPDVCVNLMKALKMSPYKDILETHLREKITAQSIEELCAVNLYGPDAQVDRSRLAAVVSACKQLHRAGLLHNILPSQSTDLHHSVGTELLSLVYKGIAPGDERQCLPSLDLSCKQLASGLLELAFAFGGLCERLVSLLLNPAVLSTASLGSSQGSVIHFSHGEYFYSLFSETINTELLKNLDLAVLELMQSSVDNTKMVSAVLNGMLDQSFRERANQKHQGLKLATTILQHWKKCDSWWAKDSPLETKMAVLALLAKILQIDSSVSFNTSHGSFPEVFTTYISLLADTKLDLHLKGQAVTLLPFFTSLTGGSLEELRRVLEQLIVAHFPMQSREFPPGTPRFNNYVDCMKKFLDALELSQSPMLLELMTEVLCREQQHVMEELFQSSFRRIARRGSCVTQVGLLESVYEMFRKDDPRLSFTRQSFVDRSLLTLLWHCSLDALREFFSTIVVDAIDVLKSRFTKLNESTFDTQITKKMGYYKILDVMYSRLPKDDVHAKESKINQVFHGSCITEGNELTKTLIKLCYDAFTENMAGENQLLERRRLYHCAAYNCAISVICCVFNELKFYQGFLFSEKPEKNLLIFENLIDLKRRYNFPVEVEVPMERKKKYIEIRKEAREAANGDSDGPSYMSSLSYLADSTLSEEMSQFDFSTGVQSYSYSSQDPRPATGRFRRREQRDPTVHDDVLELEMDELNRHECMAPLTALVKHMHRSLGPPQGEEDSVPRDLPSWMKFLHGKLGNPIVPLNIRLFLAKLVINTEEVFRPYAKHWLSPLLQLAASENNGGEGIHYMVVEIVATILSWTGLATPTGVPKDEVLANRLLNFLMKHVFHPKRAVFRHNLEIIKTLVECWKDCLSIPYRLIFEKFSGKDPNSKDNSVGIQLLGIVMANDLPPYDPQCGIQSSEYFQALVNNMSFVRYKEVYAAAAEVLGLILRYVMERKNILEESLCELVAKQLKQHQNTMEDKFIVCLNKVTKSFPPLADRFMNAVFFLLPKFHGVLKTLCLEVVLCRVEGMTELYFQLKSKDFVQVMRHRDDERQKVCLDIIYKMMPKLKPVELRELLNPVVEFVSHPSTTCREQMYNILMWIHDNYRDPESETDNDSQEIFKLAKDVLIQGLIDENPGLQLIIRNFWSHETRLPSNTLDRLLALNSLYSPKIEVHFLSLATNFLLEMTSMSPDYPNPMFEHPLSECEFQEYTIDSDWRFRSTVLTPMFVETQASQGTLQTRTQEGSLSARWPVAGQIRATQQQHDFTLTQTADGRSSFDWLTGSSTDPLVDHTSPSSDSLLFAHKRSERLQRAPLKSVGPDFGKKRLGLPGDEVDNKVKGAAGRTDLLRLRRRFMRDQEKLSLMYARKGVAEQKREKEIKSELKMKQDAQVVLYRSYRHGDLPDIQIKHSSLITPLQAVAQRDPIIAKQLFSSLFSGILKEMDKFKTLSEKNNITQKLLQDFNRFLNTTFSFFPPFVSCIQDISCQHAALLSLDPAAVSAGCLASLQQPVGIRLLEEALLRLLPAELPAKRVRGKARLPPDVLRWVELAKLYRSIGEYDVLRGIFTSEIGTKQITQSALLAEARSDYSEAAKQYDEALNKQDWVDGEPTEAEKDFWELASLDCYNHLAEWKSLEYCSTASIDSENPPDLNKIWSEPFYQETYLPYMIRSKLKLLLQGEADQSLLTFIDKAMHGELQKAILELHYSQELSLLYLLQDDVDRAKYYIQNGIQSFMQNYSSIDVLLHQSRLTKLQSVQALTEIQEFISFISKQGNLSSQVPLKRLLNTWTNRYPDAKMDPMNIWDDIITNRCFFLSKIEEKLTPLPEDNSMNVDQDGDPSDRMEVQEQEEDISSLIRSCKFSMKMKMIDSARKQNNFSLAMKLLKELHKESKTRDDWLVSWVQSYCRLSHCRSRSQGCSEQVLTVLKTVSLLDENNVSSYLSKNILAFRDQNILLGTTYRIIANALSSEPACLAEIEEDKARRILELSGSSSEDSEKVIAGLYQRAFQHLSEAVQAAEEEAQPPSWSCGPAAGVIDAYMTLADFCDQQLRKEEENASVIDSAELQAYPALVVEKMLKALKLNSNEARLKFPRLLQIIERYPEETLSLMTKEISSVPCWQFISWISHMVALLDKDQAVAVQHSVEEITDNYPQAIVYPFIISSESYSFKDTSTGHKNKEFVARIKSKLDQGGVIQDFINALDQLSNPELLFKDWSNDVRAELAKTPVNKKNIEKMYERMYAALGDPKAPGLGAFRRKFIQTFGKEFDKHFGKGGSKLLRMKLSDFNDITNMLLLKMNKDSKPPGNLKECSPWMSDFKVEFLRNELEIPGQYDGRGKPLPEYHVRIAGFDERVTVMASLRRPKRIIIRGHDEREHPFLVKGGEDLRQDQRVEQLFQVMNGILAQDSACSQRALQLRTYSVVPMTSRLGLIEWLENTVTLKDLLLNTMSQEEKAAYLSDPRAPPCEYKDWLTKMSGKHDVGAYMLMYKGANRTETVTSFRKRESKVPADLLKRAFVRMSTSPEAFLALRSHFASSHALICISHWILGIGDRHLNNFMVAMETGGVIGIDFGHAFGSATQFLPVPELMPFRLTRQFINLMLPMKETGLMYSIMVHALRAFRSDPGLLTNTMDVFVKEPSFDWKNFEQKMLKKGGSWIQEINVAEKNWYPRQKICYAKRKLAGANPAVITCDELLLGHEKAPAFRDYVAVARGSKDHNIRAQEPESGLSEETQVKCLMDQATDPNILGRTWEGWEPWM

The target of the test is DNA-PK catalytic subunit (human (endogenous in MDAH-2774, TOV-112D, SKOV-3, TOV-21G cells and primary HG-EOC tumours)) (UniProt P78527). In words: co-IP; endogenous proteins in total lysates of MDAH (p53^R273H) and TOV-112D (p53^R175H) cells, SKOV-3 (p53 null) and control IgG as negative controls; in MDAH also after stathmin shRNA (interaction significantly impaired, IP anti-p53) and after 3 h CBDCA (twofold more p53 bound to DNA-PK, IP anti-DNA-PK).

Results are given in words; binding and its absence hold for the method and conditions named. Binding seen in cells or lysates may run through a third protein.

B1: stathmin 1 (protein, UniProt P16949 1-149)
chain: MASSDIQVKELEKRASGQAFELILSPRSKESVPEFPLSPPKKKDLSLEEIQKKLEAAEERRKSHEAEVLKQLAEKREHEKEVLQKAIEENNNFSKMAEEKLTHKMEANKENREAQMAAKLERLREKDKHIEEVRKNKESKDPADETEAD
Regarding B1, the binding result is on record as “no binding”.
